PMC8887472
These are yes or no findings as the source states them, for the method shown. In cells and extracts the contact can be indirect. A yes stands for co-enrichment or nearness to the bait. Other partners may have been found.

Amino acid sequences for entries named in this document (tags omitted).
UniProt P0CAP2: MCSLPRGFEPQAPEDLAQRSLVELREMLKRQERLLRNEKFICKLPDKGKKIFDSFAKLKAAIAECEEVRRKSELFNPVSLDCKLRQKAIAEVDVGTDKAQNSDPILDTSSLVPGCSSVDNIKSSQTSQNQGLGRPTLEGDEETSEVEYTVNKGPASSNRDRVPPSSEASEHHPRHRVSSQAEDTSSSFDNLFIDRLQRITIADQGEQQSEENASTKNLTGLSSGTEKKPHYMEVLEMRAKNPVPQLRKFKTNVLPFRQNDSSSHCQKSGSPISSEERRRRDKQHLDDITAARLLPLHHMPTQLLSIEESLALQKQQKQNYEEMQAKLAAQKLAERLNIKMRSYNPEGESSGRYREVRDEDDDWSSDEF
UniProt Q9UHW5: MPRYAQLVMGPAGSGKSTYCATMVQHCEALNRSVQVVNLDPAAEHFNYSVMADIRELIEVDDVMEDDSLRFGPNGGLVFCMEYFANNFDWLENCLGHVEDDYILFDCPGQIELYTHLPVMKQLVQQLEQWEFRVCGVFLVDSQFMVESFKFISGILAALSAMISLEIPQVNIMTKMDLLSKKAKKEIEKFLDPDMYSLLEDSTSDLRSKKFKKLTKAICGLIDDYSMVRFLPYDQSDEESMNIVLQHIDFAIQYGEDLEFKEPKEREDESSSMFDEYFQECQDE
UniProt Q8IXW5: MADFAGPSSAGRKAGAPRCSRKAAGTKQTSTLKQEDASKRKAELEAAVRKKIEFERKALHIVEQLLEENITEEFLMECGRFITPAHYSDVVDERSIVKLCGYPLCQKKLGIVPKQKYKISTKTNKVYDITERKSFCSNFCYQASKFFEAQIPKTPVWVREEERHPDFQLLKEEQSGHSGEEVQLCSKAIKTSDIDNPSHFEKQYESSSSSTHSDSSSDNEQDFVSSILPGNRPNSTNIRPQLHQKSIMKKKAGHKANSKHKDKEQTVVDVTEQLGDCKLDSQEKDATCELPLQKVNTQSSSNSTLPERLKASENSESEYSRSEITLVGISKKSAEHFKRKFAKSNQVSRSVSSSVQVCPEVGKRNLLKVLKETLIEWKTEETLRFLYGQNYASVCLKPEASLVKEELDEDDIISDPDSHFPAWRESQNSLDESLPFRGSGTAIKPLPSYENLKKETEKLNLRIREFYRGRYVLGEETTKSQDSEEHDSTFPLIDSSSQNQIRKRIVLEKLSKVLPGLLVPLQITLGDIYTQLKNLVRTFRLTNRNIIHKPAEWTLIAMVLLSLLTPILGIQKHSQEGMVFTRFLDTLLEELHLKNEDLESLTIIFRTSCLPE

Biological target: eGFP-TEV-Gdown1 (human (endogenous in HAP1)) (UniProt P0CAP2)
Test: affinity purification with mass spectrometry; GFP-Trap agarose IP from clarified lysate of eGFP-TEV-Gdown1 HAP1 cells (20 mM Tris pH 7.8, 150 mM NaCl, 0.5% IGEPAL CA-360, 0.1 mM EDTA, 1 mM DTT), 1 h at 4°C; complexes eluted by TEV digestion; LC-MS

binding | Substance
binds | GPN3 (from UniProt Q9UHW5 1-284)
binds | RPAP2 (from UniProt Q8IXW5 1-612)
